Source: paper PMC4182809
No constants are given. Whether binding was seen depends on the method and setting. Some results given as binding are weak or reduced against the parent protein; the word gives no strength.

Target: plastidic glutamine synthetase (GS2), maize, stromal form (maize (endogenous in maize chloroplasts)) (UniProt P25462)
Test: native gel or EMSA; BN-PAGE (4-16% Bis-Tris gradient gel, 4°C) of stroma and thylakoid proteins of chloroplasts, western blot, with 2D SDS-PAGE; extraction in 20 mM Hepes-KOH pH 7.5, or potassium phosphate pH 6 or pH 8 with or without 0.1 M NaCl, 10 mM DTT or 10 mM ascorbic acid

binding: binds
B1: plastidic glutamine synthetase (GS2), maize, stromal form (enzyme, UniProt P25462 52-423)
chain: VPRLEQLLNMDTTPYTDKVIAEYIWVGGSGIDIRSKSRTISKPVEDPSELPKWNYDGSSTGQAPGEDSEVILYPQAIFKDPFRGGNNVLVICDTYTPQGEPLPTNKRHRAAQIFSDPKVGEQVPWFGIEQEYTLLQKDVNWPLGWPVGGFPGPQGPYYCAVGADKSFGRDISDAHYKACLYAGINISGTNGEVMPGQWEYQVGPSVGIEAGDHIWISRYILERITEQAGVVLTLDPKPIQGDWNGAGCHTNYSTKTMREDGGFEEIKRAILNLSLRHDLHISAYGEGNERRLTGKHETASIGTFSWGVANRGCSIRVGRDTEAKGKGYLEDRRPASNMDPYIVTGLLAETTILWQPSLEAEALAAKKLALKV
